The test deals with HT-29. The experiment in a line: Antiproliferative activity against human HT-29 cells over expressing GLUT1 measured after 72 hrs by MTT assay. It counts as functional, cell-based. The note with it: HT-29, 72 h. In general terms: Tetrazolium dyes change colour on reduction, which living cells bring about.

With `COc1cc2c(c(OC)c1OC)-c1ccc(OC)c(=O)cc1[C@@H](NC(C)=O)CC2` [COLCHICINE], the IC50 (in general, the midpoint of a concentration-inhibition curve) stood at 0.018 µM. This lies in the double-digit nanomolar range.
